From article PMC8265641, “Enterococcal PrgU Provides Additional Regulation of Pheromone-Inducible Conjugative Plasmids” come the findings set out here.

Construct, isoform or probe ends are uncertain for at least one entry.

For series [1], the target named is PrgU-His (Enterococcus faecalis plasmid pCF10) (UniProt Q5G3Q2). Briefly: EMSA. The settings on record: 0-13 uM PrgU, 100 nM DNA, EMSA: 20 min at ~25 C, 1% agarose run at 4 C, buffer as previously described (not given), protein details: C-terminal 10xHis with 3C protease site, probe letters rebuilt from the primers and the genome. On the technique in general: Mobility shift assays separate free from complexed probe on a gel.

For series [2] the target is unchanged. Briefly: MST. The settings on record: bound equally well as IGR RNA, 50 nM PrgU, RNA up to 40 uM; MST: 20 mM KPi pH 7.0, 150 mM NaCl, 0.05% Tween 20, 0.1 U/ul RNase inhibitor, ~25 C; recombinant protein; protein details: C-terminal 10xHis with 3C protease site; probe letters rebuilt from the primers and the genome.

“AATATCGAATTCTAATACGACTCACTATAGGGCATGTCAATGAATGAAGCAGATTTTAAACTCATCCTTTCTCAATTTCTTTTAAAAGATGAGACAAGCGAAAACCCAAAACTTCACCCTCAAAAAATTGAAAAAAGAAAAGCTCCAATCCAAAATAGTCTGGAGAATTATATTACTGAACTCATAAACAATGAAGTTGAGATTGACCTTTCAGATTACAAAGCAGCACTCAAACAATTAAAGAAAATGAAAGCTGCGGAATACGACGAGTTGGTCATGGAAATTGTCGAAGATTATGAACTTTTGACTGAAAAAAAGAATAAAGTATTCCCTTCAGGCAGTACCCCTTATCCTGAACAAATCATGAACCGAACAGTAAAAGAAATTACAGCAGAGATTCAAGTAACTTCTTCAGATGACCTCAATAAACGAGAGCGCAAAGAACAAAAAGCAAAAAGTTTGTTGGCTGATTTTTCTTGGTTACAAGGAAAAAGAAAAAATCGCAAGTAGAAGCTTTGGCCC (double strand) [control dsDNA]”: the binding result in series [1] (affinity similar to IGR dsDNA, recombinant protein) was “binds”. Regarding “GGGCAUGUCAAUGAAUGAAGCAGAUUUUAAACUCAUCCUUUCUCAAUUUCUUUUAAAAGAUGAGACAAGCGAAAACCCAAAACUUCACCCUCAAAAAAUUGAAAAAAGAAAAGCUCCAAUCCAAAAUAGUCUGGAGAAUUAUAUUACUGAACUCAUAAACAAUGAAGUUGAGAUUGACCUUUCAGAUUACAAAGCAGCACUCAAACAAUUAAAGAAAAUGAAAGCUGCGGAAUACGACGAGUUGGUCAUGGAAAUUGUCGAAGAUUAUGAACUUUUGACUGAAAAAAAGAAUAAAGUAUUCCCUUCAGGCAGUACCCCUUAUCCUGAACAAAUCAUGAACCGAACAGUAAAAGAAAUUACAGCAGAGAUUCAAGUAACUUCUUCAGAUGACCUCAAUAAACGAGAGCGCAAAGAACAAAAAGCAAAAAGUUUGUUGGCUGAUUUUUCUUGGUUACAAGGAAAAAGAAAAAAUCGCAAGUAGAAGCUUUGGCCC [control RNA (same length as IGR)]”, the binding result in series [2] is on record as “binds”. Consider “GGGCCAAAGCTTTGATTCACCTACTTTCTGAACCAAGTAGAAAAAGAGCCATGCAACACGTTGTTTGCACGGCTCTTACGAGTAGTTCCAGTACAAACAATGCGTGAAAGCATTGAATTATTCCACAAGCGGGTCATTTTTAGAAAATGAGCGTGCTTGTTACTTGGTTTTTTTATTTTTTCAACAAGTTAACAGACAACAAAAAAAGCGGGGAACATATACATGAACTGTATACATTCCCCGCTGCTCCAACATTTATACAACTAATAAAAACAATTCACTGTAAAAACTTTTCCTAGACAAATAAAGGAGTTTAAAAAAGTCTAGAATTTTACATAAAAAATTGTTATACTATACGTTGTAACTAATGTTGCAACAAACGAGAACCGAGTAGAGTTCATGTCATACCATGAATTGTTTAACTGCCCCCTAGGATTGCCGTCCTATGGCAGTCGGTTCTTAATTTGTTTAATTGTTACTATGATTTTTTCTAGCCCTATAGTGAGTCGTATTAGAATTCGATAGC (double strand) [IGR dsDNA]”, for which, in series [1] (low-micromolar affinity, recombinant …), the binding result is given as “binds”.
